The values below come from PMC6198961, “The dimeric structure of wild-type human glycosyltransferase B4GalT1” (PLoS ONE, 2018).

Results are given in words; binding and its absence hold for the method and conditions named. In cells and extracts the contact can be indirect. Some binding calls cover weakened binding; strength is not graded here. Sequences can lack the tags named with a protein.

Common to all, as to assay: FRET or BRET; COS-7 cells co-transfected with mVenus and mCherry fusions, fixed with 4% paraformaldehyde; Operetta High Content Imaging System; FRET efficiencies
A general note: Bioluminescence resonance energy transfer reports proximity on the nanometre scale.

The target in test [1] is full-length human wild-type B4GalT1 fused to mVenus or mCherry (human) (UniProt P15291).
The target of test [2] is full-length human B4GalT1 D315A fused to mVenus or mCherry (human) (UniProt P15291).
Test [3] deals with full-length human B4GalT1 M340E fused to mVenus or mCherry (human) (UniProt P15291).

B1: full-length human wild-type B4GalT1 fused to mVenus or mCherry (protein, UniProt P15291 1-398)
chain: MRLREPLLSGSAAMPGASLQRACRLLVAVCALHLGVTLVYYLAGRDLSRLPQLVGVSTPLQGGSNSAAAIGQSSGELRTGGARPPPPLGASSQPRPGGDSSPVVDSGPGPASNLTSVPVPHTTALSLPACPEESPLLVGPMLIEFNMPVDLELVAKQNPNVKMGGRYAPRDCVSPHKVAIIIPFRNRQEHLKYWLYYLHPVLQRQQLDYGIYVINQAGDTIFNRAKLLNVGFQEALKDYDYTCFVFSDVDLIPMNDHNAYRCFSQPRHISVAMDKFGFSLPYVQYFGGVSALSKQQFLTINGFPNNYWGWGGEDDDIFNRLVFRGMSISRPNAVVGRCRMIRHSRDKKNEPNPQRFDRIAHTKETMLSDGLNSLTYQVLDVQRYPLYTQITVDIGTPS
Consider B1, for which the binding entry in test [1] is “binds”.

B2: full-length human B4GalT1 D315A fused to mVenus or mCherry (protein, UniProt P15291 1-398)
chain: MRLREPLLSGSAAMPGASLQRACRLLVAVCALHLGVTLVYYLAGRDLSRLPQLVGVSTPLQGGSNSAAAIGQSSGELRTGGARPPPPLGASSQPRPGGDSSPVVDSGPGPASNLTSVPVPHTTALSLPACPEESPLLVGPMLIEFNMPVDLELVAKQNPNVKMGGRYAPRDCVSPHKVAIIIPFRNRQEHLKYWLYYLHPVLQRQQLDYGIYVINQAGDTIFNRAKLLNVGFQEALKDYDYTCFVFSDVDLIPMNDHNAYRCFSQPRHISVAMDKFGFSLPYVQYFGGVSALSKQQFLTINGFPNNYWGWGGEDADIFNRLVFRGMSISRPNAVVGRCRMIRHSRDKKNEPNPQRFDRIAHTKETMLSDGLNSLTYQVLDVQRYPLYTQITVDIGTPS
Turning to B2, the binding result in test [2] is given as “binds”.

B3: full-length human B4GalT1 M340E fused to mVenus or mCherry (protein, UniProt P15291 1-398)
chain: MRLREPLLSGSAAMPGASLQRACRLLVAVCALHLGVTLVYYLAGRDLSRLPQLVGVSTPLQGGSNSAAAIGQSSGELRTGGARPPPPLGASSQPRPGGDSSPVVDSGPGPASNLTSVPVPHTTALSLPACPEESPLLVGPMLIEFNMPVDLELVAKQNPNVKMGGRYAPRDCVSPHKVAIIIPFRNRQEHLKYWLYYLHPVLQRQQLDYGIYVINQAGDTIFNRAKLLNVGFQEALKDYDYTCFVFSDVDLIPMNDHNAYRCFSQPRHISVAMDKFGFSLPYVQYFGGVSALSKQQFLTINGFPNNYWGWGGEDDDIFNRLVFRGMSISRPNAVVGRCREIRHSRDKKNEPNPQRFDRIAHTKETMLSDGLNSLTYQVLDVQRYPLYTQITVDIGTPS
Turning to B3, the binding entry in test [3] is reported as “binds”.
